The campaign covered roughly 1,300 compounds. About 270 (21%) were called active.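 The calls were made as follows: active = dose-dependent rise or fall in viability, either side of zero, with half-maximal concentration at or below a set limit; inconclusive = flat curve at 30 to 70% viability loss, or poor fit; inactive = flat within 30% either way, or potency beyond limit.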 The list shows a part of the results. Results with a measured potency or affinity are listed apart.

This assay is described as follows: A375 melanoma cell viability reduction, dose response, counter-screen for MITF modulator project, cherry-pick samples, set 2 (AID 540335).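 Also: A375 human melanoma cells which do not depend on MITF; 0% = median of neutral control wells and 100% = double that signal.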 The conditions noted are these: CellTiter-Glo ATP luminescence, 24 h; at 35 µM (top of the series). (In general: A counterscreen serves to expose hits that act by an unwanted route or on another target.)
`Cc1cc(N2CCOCC2)ccc1/C=C\[N+](=O)[O-]`: the activity change, negative = decreased viability was inactive: -10.1%.

`Cc1nn(-c2ccccc2Cl)c(Cl)c1/C=N/Nc1cccc(C(=O)O)c1`: the activity change, negative = decreased viability is inactive: 13.6%.

As for `CCOC(=O)c1ccc(NC(=O)Cc2cccs2)cc1`, the activity change, negative = decreased viability is inactive: 3.63%.

For `CCC(=O)N1CCN(c2ccc(Cl)cc2NC(=O)c2ccc([N+](=O)[O-])o2)CC1`, the activity change, negative = decreased viability was inactive: 10.8%.

Turning to `CCN(CC)CCNC(=O)c1c(C)n(-c2ccccc2)c2cc(Br)c(OC)cc12`, the activity change, negative = decreased viability was inactive: -49.1%.

Turning to `COc1ccc(Br)cc1C(C[N+](=O)[O-])c1c(N)n(C)c(=O)n(C)c1=O` (stereo not given), the activity change, negative = decreased viability was inactive: 2.48%.

As to `O=C(CCC(=O)c1ccc[nH]1)c1ccc(Cl)cc1`, the activity change, negative = decreased viability was inactive: -1.75%.

Consider `Clc1ccc(-c2c[n+](Cc3cccc(Cl)c3)c3n2CCC3)cc1`, for which the activity change, negative = decreased viability was inactive: 3.73%.

With `Cc1ccc(NC(=O)Cn2ncc(Cl)c(Cl)c2=O)cc1S(=O)(=O)N1CCCCC1`, the activity change, negative = decreased viability was inactive: -14.3%.

For `O=C(O)c1cccc(N/N=C/c2cccs2)c1`, the activity change, negative = decreased viability was inactive: -3.87%.

As to `N#C/C(=C(/O)CCl)c1nc2ccccc2[nH]1`, the activity change, negative = decreased viability was inactive: -10.4%.

`CSCCNC(=O)c1ccc2nc(Cc3ccccc3F)oc2c1`: the activity change, negative = decreased viability was inactive: 9.34%.

With `O=[N+]([O-])c1ccccc1OCCOc1ccccc1[N+](=O)[O-]`, the activity change, negative = decreased viability is inactive: -0.92%.

On to `O=C(Nc1nc(-c2ccccn2)cs1)c1ccc([N+](=O)[O-])o1`, for which the activity change, negative = decreased viability is inactive: -35.5%.

In the case of `COc1cc2c(cc1O)C(SC)=NC(C)(C)C2`, the activity change, negative = decreased viability was inactive: -20.8%.

Regarding `COc1cccc(NC(=O)c2cc3c(=O)n4ccccc4nc3n(CC(C)C)c2=N)c1`, the activity change, negative = decreased viability is inactive: -8.17%.

Regarding `CCNc1nc(N)c(C(=O)c2ccc(Cl)s2)s1`, the activity change, negative = decreased viability is inactive: 4.23%.

For the molecule `O=C(N/N=C/c1cc(Br)ccc1O)c1ccncc1`, the activity change, negative = decreased viability is inactive: -24.7%.

On to `COc1cc(OC)cc(-c2oc(=O)c3cc(OC)c(OC)cc3c2C(F)(F)F)c1`, for which the activity change, negative = decreased viability is inactive: -13.4%.

As for `COC1=C(Nc2ccccc2)C(=O)c2ccccc2C1=O`, the activity change, negative = decreased viability was inactive: -20.6%.

For `Cc1cc(C(=O)CCl)c(C)n1CCc1ccc(F)cc1`, the activity change, negative = decreased viability is inactive: -24.7%.

Consider `COc1cc(/C=C/C(=O)c2ccc3c(c2)OCCO3)cc(Br)c1OCC(=O)N(C)C`, for which the activity change, negative = decreased viability was inactive: 107%.

As for `O=C(NCCSc1ccccc1)c1ccccc1F`, the activity change, negative = decreased viability is inactive: 6.97%.

Regarding `CN(C)S(=O)(=O)c1cccc(NC(=O)CSc2nc3c(cc2C#N)C(=O)CC(C)(C)C3)c1`, the activity change, negative = decreased viability is inactive: 1.16%.

On to `COc1ccc(C(=O)CN2Cc3ccccc3C2=N)cc1`, for which the activity change, negative = decreased viability is inactive: -0.752%.

As to `O=C(Nc1ccc2nc3n(c(=O)c2c1)CCCCC3)c1cc([N+](=O)[O-])ccc1F`, the activity change, negative = decreased viability is inactive: 47.5%.

With `COc1ccc(C(=O)Nc2nc3ccc(OC)cc3s2)cc1`, the activity change, negative = decreased viability was inactive: 0.195%.

As to `COc1ccc2oc3ccc(OC)cc3c(=O)c2c1`, the activity change, negative = decreased viability is inactive: -5.84%.

With `CN(C)S(=O)(=O)c1ccc(-c2csc(N/N=C/c3ccco3)n2)cc1`, the activity change, negative = decreased viability is inactive: -2.6%.

For `Cc1ccc(/C=c2/sc3n(c2=O)CCCN=3)o1`, the activity change, negative = decreased viability was inactive: -4.61%.

As for `FC(F)(F)c1cc(CCN2CCNC[C@@H]2Cc2ccccc2)cc(C(F)(F)F)c1`, the activity change, negative = decreased viability was inactive: -94.9%.

On to `O=C(Nc1ccccc1F)c1ccc2c(c1)OCO2`, for which the activity change, negative = decreased viability is inactive: -7.28%.

With `Cc1cccc(OCc2nc3ccccc3n2C)c1`, the activity change, negative = decreased viability is inactive: 16.1%.

Consider `O=C(Nc1ccc(S(=O)(=O)N2CCCCCC2)cc1)c1[nH]ncc1[N+](=O)[O-]`, for which the activity change, negative = decreased viability was inactive: -21%.

Consider `O=C(c1ccc([N+](=O)[O-])s1)N1CCCc2ccccc21`, for which the activity change, negative = decreased viability is inactive: -9.78%.

On to `Cc1cccc(-c2nc(C#N)c(NCc3ccco3)o2)c1`, for which the activity change, negative = decreased viability was inactive: -1.12%.

On to `CCOC(=O)Cn1c(=NC(=O)c2ccc([N+](=O)[O-])s2)sc2ccccc21`, for which the activity change, negative = decreased viability is inactive: -12.7%.

As to `COc1ccc(-c2csc(N(C)C(=O)c3ccco3)n2)cc1`, the activity change, negative = decreased viability is inactive: 0.973%.

For `CCn1nccc1C(=O)Nc1ccc(C)c(C)c1`, the activity change, negative = decreased viability was inactive: -8.74%.

Take `O=C(NC1CC1)C1CCN(S(=O)(=O)c2ccc(Cl)c([N+](=O)[O-])c2)CC1`: the activity change, negative = decreased viability was inactive: -0.978%.

Consider `N#CCSc1nc2ccccc2c2nc3ccccc3n12`, for which the activity change, negative = decreased viability was inactive: 0.942%.

In the case of `COc1cc(CN2CCC(Cc3ccccc3)CC2)cc(OC)c1OC`, the activity change, negative = decreased viability was inactive: -6.84%.

Consider `O=C(CNC(=O)c1cccc(F)c1)N/N=C/c1ccc([N+](=O)[O-])s1`, for which the activity change, negative = decreased viability was inactive: -17.1%.

For the molecule `COc1ccc(/C=N/Nc2cc(C)nc(-n3nc(C)cc3C)n2)c(OC)c1`, the activity change, negative = decreased viability was inactive: -25.2%.

For the molecule `Cc1ccc(C(=O)c2cccc(N)c2)cc1C`, the activity change, negative = decreased viability is inactive: 11.7%.

For the molecule `Nc1ccc(Oc2cccc(Oc3ccc(N)cc3)c2)cc1`, the activity change, negative = decreased viability was inactive: 5.47%.

On to `CC(=O)SC(C[N+](=O)[O-])c1cn(C(C)=O)c2ccccc12` (stereo not given), for which the activity change, negative = decreased viability was inactive: 22.6%.

`COc1ccc(NS(=O)(=O)c2cc(NC(=O)CNC(=O)c3cccc(OC)c3)ccc2C)cc1`: the activity change, negative = decreased viability is inactive: 12.3%.

Take `O=C(COC(=O)CCN1C(=O)/C(=C\C=C\c2ccccc2)SC1=S)Nc1cc(F)ccc1F`: the activity change, negative = decreased viability is inactive: 0.586%.

Consider `Cc1cccc2sc(N(CCCN(C)C)C(=O)c3nc4ccccc4s3)nc12`, for which the activity change, negative = decreased viability was inactive: -16.6%.

Consider `O=C(Nc1ccc(OC(F)(F)F)cc1)c1[nH]ncc1[N+](=O)[O-]`, for which the activity change, negative = decreased viability was inactive: -1.08%.

As to `COc1cc2c(cc1OC)C(SC)=NC1(CCCC1)C2`, the activity change, negative = decreased viability was inactive: -6.14%.

For `C/C(=N\NC(=O)Cc1ccc(Cl)cc1)c1ccccn1`, the activity change, negative = decreased viability is inactive: -24%.

Turning to `CCCCC(=O)N/C(N)=N/c1nc2ccccc2o1`, the activity change, negative = decreased viability is inactive: -7.02%.

For the molecule `Cc1ccccc1OCC(=O)N/N=C/c1ccc([N+](=O)[O-])o1`, the activity change, negative = decreased viability is inactive: -16.2%.

On to `O=C(CCl)N1c2ccccc2SCC1c1ccccc1` (stereo not given), for which the activity change, negative = decreased viability is inactive: -37%.

In the case of `CCC[n+]1c(C)sc2c3c(ccc21)CCCC3`, the activity change, negative = decreased viability was inactive: -27.6%.

Consider `CCN1CCc2c(sc(NC(=O)c3ccc(S(=O)(=O)N4CCCC4)cc3)c2C(=O)NC)C1`, for which the activity change, negative = decreased viability was inactive: -9.91%.

With `CC1CN(C(=O)CCC(=O)NCCCN2CCC(Cc3ccccc3)CC2)c2cc(Cl)ccc2O1` (stereo not given), the activity change, negative = decreased viability was inactive: -37.2%.

`Cn1cccc1-c1cc(C(=O)N/N=C/c2cc(Br)ccc2O)[nH]n1`: the activity change, negative = decreased viability was inactive: -30%.

Consider `Cc1ccc2c(COC(=O)c3n[nH]c4ccccc34)cc(=O)oc2c1`, for which the activity change, negative = decreased viability is inactive: 8.63%.

As for `CC(C)(C)C(=O)Nc1cc2nn(-c3ccccc3)nc2cc1Cl`, the activity change, negative = decreased viability is inactive: -8.34%.

`Cc1cc(C)c2c(N)c(C(=O)Nc3ncc(C)s3)sc2n1`: the activity change, negative = decreased viability is inactive: -18.7%.

As for `Cc1occc1C(=O)N/N=C/c1ccc(OCc2ccccc2)cc1`, the activity change, negative = decreased viability is inactive: 7.83%.

For the molecule `Cc1ccc(C(=O)c2coc3ccc(O)c(Cl)c23)cc1`, the activity change, negative = decreased viability was inactive: 28.7%.

Regarding `CN(C)c1ccc(-n2cccc2/C=C/[N+](=O)[O-])cc1`, the activity change, negative = decreased viability was inactive: -3.05%.

Turning to `O=C(Nc1ccc2ncccc2c1)c1ccccc1Br`, the activity change, negative = decreased viability was inactive: 9.05%.

Take `CCOC(=O)c1cc2sccc2n1CC(=O)N1c2ccccc2CC1C` (stereo not given): the activity change, negative = decreased viability is inactive: -32.3%.

As for `COc1ccc(N(C(=O)CCl)C(C(=O)NC2CCCCC2)c2cccnc2)cc1` (stereo not given), the activity change, negative = decreased viability was inactive: 46.5%.

For `CC(=O)Nc1nc(C)c(-c2csc(Nc3cccc(C(C)=O)c3)n2)s1`, the activity change, negative = decreased viability was inactive: -21.3%.

For `Cc1ccc(CC(=O)Nc2ccc(Cl)cn2)cc1`, the activity change, negative = decreased viability is inactive: 6.23%.

On to `N/C(=N\OC(=O)Cc1cccs1)c1ccccc1`, for which the activity change, negative = decreased viability is inactive: 6.82%.

As for `COc1cc(/C=N/NC(N)=O)c(Br)cc1OCC(=O)Nc1ccccc1C`, the activity change, negative = decreased viability was inactive: -37.4%.

Regarding `COc1cccc(C(=O)Nc2ccc3c(cc2=O)[C@@H](NC(C)=O)CCc2cc(OC)c(OC)c(OC)c2-3)c1`, the activity change, negative = decreased viability was inactive: -4.06%.

On to `Cc1ccc2nc(NC(=O)CSCC(=O)OCC(=O)c3ccccc3)sc2c1`, for which the activity change, negative = decreased viability is inactive: -14.9%.

Turning to `CC(C)(C)OC(=O)N1CCN(C(=O)c2nc[nH]c2C(=O)N2CCN(c3ccccc3)CC2)CC1`, the activity change, negative = decreased viability was inactive: 2.83%.

For `COC(=O)c1ccc(/C=C(\C#N)C(=O)NC(C)c2ccccc2)cc1` (stereo not given), the activity change, negative = decreased viability is inactive: -0.974%.

On to `O=C(COc1ccccc1)N/N=C/c1ccc([N+](=O)[O-])o1`, for which the activity change, negative = decreased viability was inactive: -8.29%.

Consider `C=CCn1cccc(C(=O)Nc2ccc(C)c(Cl)c2)c1=O`, for which the activity change, negative = decreased viability was inactive: -1.87%.

On to `COC1=C(Nc2ccc(O)cc2)C(=O)c2ccccc2C1=O`, for which the activity change, negative = decreased viability was inactive: -34.3%.

Turning to `COc1cccc(/C=N/Nc2nc3ccccc3[nH]2)c1OC`, the activity change, negative = decreased viability is inactive: 9.81%.

Turning to `O=Cc1ccc(N2Cc3ccccc3C2)cc1`, the activity change, negative = decreased viability was inactive: 0.449%.

Consider `COc1ccccc1-c1cc(C(F)(F)F)nc(S(C)(=O)=O)n1`, for which the activity change, negative = decreased viability is inactive: -3.05%.

`Cc1c(NC(=O)c2ccc([N+](=O)[O-])o2)cccc1-c1nc2ncccc2o1`: the activity change, negative = decreased viability was inactive: -3.64%.

Take `NNC(=O)Cn1c(SCc2ccccc2)nc2ccccc21`: the activity change, negative = decreased viability was inactive: -2.53%.

In the case of `Cn1c(COc2ccccc2)nc2ccccc21`, the activity change, negative = decreased viability is inactive: 5.66%.

As for `CCOC(=O)CSc1nc2cc(OCC)ccc2cc1C#N`, the activity change, negative = decreased viability is inactive: 7.09%.

As for `Oc1cc(NCc2cccnc2)ccc1-c1nc2ccccc2o1`, the activity change, negative = decreased viability was inactive: -5.26%.

As to `CCCc1ccc(-c2ccc(/C=C/C(=O)O)cc2)nc1`, the activity change, negative = decreased viability was inactive: 6.8%.

In the case of `Cc1ccc(NC(=O)c2ccc([N+](=O)[O-])o2)cc1S(=O)(=O)N1CCOCC1`, the activity change, negative = decreased viability was inactive: 13.3%.

On to `COc1ccc(N/C=C\C(=O)c2ccc3ccccc3c2)cc1`, for which the activity change, negative = decreased viability is inactive: 15.8%.

`CC1=NC(=O)C(N=Nc2cccc(C(=O)O)c2)N1c1ccccc1` (stereo not given): the activity change, negative = decreased viability is inactive: -0.293%.

`CCN1CCc2c(sc(NC(=O)c3ccc(S(=O)(=O)N4CCCCCC4)cc3)c2C(=O)NC)C1`: the activity change, negative = decreased viability was inactive: -9.09%.

In the case of `CC(C)C(=O)N1CCN(c2ccc(NC(=O)c3ccc([N+](=O)[O-])o3)cc2)CC1`, the activity change, negative = decreased viability is inactive: 17.6%.

For the molecule `Cc1ccc(C(=O)c2no[n+]([O-])c2C(=O)c2ccc(C)cc2)cc1`, the activity change, negative = decreased viability is inactive: -8.72%.
